The list shows only some results of the screen, not a fair sample: it gathers tests that were run many times, whatever their T/C, doses with no T/C, and many T/C values between a quarter and a half above the control. Further doses and runs are listed elsewhere. T/C is the treated group as % of the vehicle group. Some doses have a count of surviving animals in place of a T/C: the source holds a T/C of zero for them, seemingly a mark for toxic or unscored doses. Some doses without a T/C left all or most animals alive at the check, yet need not have been tolerated: survival well below the control is almost never listed, so the zero probably covers shortened survival too. Counts of survivors are from the toxicity check (mostly the fifth day) where no day follows; animals may have died later. Schedule codes are those of the source, read here as Q, the interval in days (D) or hours (H), X, the number of doses. Some entries hold several experiments; the values are given in rising order. Where survival is the endpoint, the PubChem record calls one and a half times the control and up active, and a quarter to a half above the control has no call in these data; cut-offs in other NCI protocols can differ.

The subject of this assay is L1210 leukemia ip in BDF1 mice, survival T/C. Description: NCI In Vivo Anticancer Drug Screen. Data for tumor model L1210 Leukemia (intraperitoneal) in B6D2F1 (BDF1) mice. Conditions: T/C endpoint: mean survival time, higher T/C = longer survival.
Setting [1] is: dose: 50.0 mg/kg/injection, schedule: Q01DX009 (ip), vehicle: saline.
The mark [2] stands for this setting: dose: 100.0 mg/kg/injection, schedule: Q01DX009 (ip), vehicle: saline.
The mark [3] stands for this setting: dose: 200.0 mg/kg/injection, schedule: Q01DX009 (ip), vehicle: saline.
The mark [4] stands for this setting: dose: 400.0 mg/kg/injection, schedule: Q01DX001 (ip), vehicle: saline with Tween-80.
[5] abbreviates: dose: 400.0 mg/kg/injection, schedule: Q01DX009 (ip), vehicle: saline with Tween-80.
The mark [6] stands for this setting: dose: 100.0 mg/kg/injection, schedule: Q04DX003 (ip), vehicle: saline with Tween-80.
Setting [7] is: dose: 200.0 mg/kg/injection, schedule: Q04DX003 (ip), vehicle: saline with Tween-80.
Where [8] appears, read: dose: 400.0 mg/kg/injection, schedule: Q04DX003 (ip), vehicle: saline with Tween-80.
Where [9] appears, read: dose: 3.0 mg/kg/injection, schedule: Q04DX003 (ip), vehicle: saline.

`COC(=O)c1cc(=O)c2cc(C(C)=O)ccc2[nH]1`: the survivor count (dose: 100.0 mg/kg/injection, schedule: Q01DX001 (ip), vehicle: other) was 6 of 6.

`CCc1ncc(C)n1Cc1ccccc1`: the survivor count is 1 of 6 under setting [1]; 0 of 6 under setting [2]; 0 of 6 under setting [3]; 0 of 6 (dose: 400.0 mg/kg/injection, schedule: Q01DX009 (ip), vehicle: saline).

For `CCN(CC)CCCC(C)Nc1ncnc(N)c1N` (stereo unspecified), the survivor count reads like this: (dose: 100.0 mg/kg/injection, schedule: Q04DX003 (ip), vehicle: Klucel (hydroxypropylcellulose) (HPC)) 3 of 6; (dose: 200.0 mg/kg/injection, schedule: Q04DX003 (ip), vehicle: Klucel (hydroxypropylcellulose) (HPC)) 0 of 6; (dose: 400.0 mg/kg/injection, schedule: Q04DX003 (ip), vehicle: Klucel (hydroxypropylcellulose) (HPC)) 0 of 6.

Regarding `N#C/C(=C/c1ccccc1)C(=O)O`, where the note is “dose: 400.0 mg/kg/injection, schedule: Q01DX001 (ip), vehicle: carboxymethylcellulose (CMC)”, the survivor count is given as 0 of 4.

Take `CCOC(=O)CNc1ccc(Cl)cc1`: under “dose: 100.0 mg/kg/injection, schedule: Q04DX002 (ip), vehicle: Klucel (hydroxypropylcellulose) (HPC)”, the T/C is 135 % of control. For the same compound, the survivor count reads like this: (dose: 200.0 mg/kg/injection, schedule: Q04DX002 (ip), vehicle: Klucel (hydroxypropylcellulose) (HPC)) 2 of 3; (dose: 400.0 mg/kg/injection, schedule: Q04DX002 (ip), vehicle: Klucel (hydroxypropylcellulose) (HPC)) 0 of 3.

`O=NN(CCCl)C(=O)NC1(C(=O)O)CCCC1`: the T/C reads like this: (dose: 36.0 mg/kg/injection, schedule: Q01DX001 (ip), vehicle: saline with Tween-80) 140 % of control; (dose: 50.0 mg/kg/injection, schedule: Q01DX001 (ip), vehicle: carboxymethylcellulose (CMC)) 129 % of control; (dose: 54.0 mg/kg/injection, schedule: Q01DX001 (ip), vehicle: saline with Tween-80) 133 % of control. Under setting [4], the survivor count was 9 of 10.

Consider `NOCC(=O)O`, for which, for the setting “dose: 100.0 mg/kg/injection, schedule: Q01DX001 (ip), vehicle: carboxymethylcellulose (CMC)”, the survivor count was 4 of 4.

`CC1CC(NC(=O)N(CCCl)N=O)CC(C)(C)C1` (stereo unspecified): the T/C (dose: 125.0 mg/kg/injection, schedule: Q01DX001 (ip), vehicle: other) was 136 % of control.

As to `CC(C)(C)OC(=O)NC(CSCc1ccccc1)C(=O)O` (stereo unspecified), the survivor count under setting [5] is reported as 4 of 6.

On to `CCCP(=O)(CCC)CCC`, for which the survivor count is listed as 2 of 6 (dose: 100.0 mg/kg/injection, schedule: Q01DX001 (ip), vehicle: saline with Tween-80); 0 of 6 (dose: 200.0 mg/kg/injection, schedule: Q01DX001 (ip), vehicle: saline with Tween-80); 0 of 6 under setting [4].

`CCC[CH2][Pb]([Cl])([CH2]CCC)[CH2]CCC`: the survivor count is, setting by setting: (dose: 12.5 mg/kg/injection, schedule: Q01DX009 (ip), vehicle: saline with Tween-80) 2 of 6; (dose: 25.0 mg/kg/injection, schedule: Q01DX009 (ip), vehicle: saline with Tween-80) 2 of 6; under setting [6], 0 of 6; under setting [7], 0 of 6; under setting [8], 0 of 6.

`O=C(NCN1CCOCC1)Nc1ccc(Cl)cc1`: under “dose: 100.0 mg/kg/injection, schedule: Q01DX009 (ip), vehicle: gum acacia”, the survivor count was 0 of 6.

As to `Cn1c2ccccc2[n+]2c(N)scc12`, the survivor count reads like this: (dose: 100.0 mg/kg/injection, schedule: Q04DX002 (ip), vehicle: saline) 2 of 3; (dose: 200.0 mg/kg/injection, schedule: Q04DX002 (ip), vehicle: saline) 0 of 3 and 2 of 3; (dose: 400.0 mg/kg/injection, schedule: Q04DX002 (ip), vehicle: saline) 0 of 3.

As to `CCOP(=O)(OCC)Oc1ccc([N+](=O)[O-])c(CC)c1`, the survivor count is recorded as 3 of 6 (dose: 20.0 mg/kg/injection, schedule: Q01DX001 (ip), vehicle: saline); 0 of 6 (dose: 40.0 mg/kg/injection, schedule: Q01DX001 (ip), vehicle: saline); 0 of 6 (dose: 75.0 mg/kg/injection, schedule: Q01DX001 (ip), vehicle: saline); 0 of 6 (dose: 80.0 mg/kg/injection, schedule: Q01DX001 (ip), vehicle: saline); 0 of 6 (dose: 150.0 mg/kg/injection, schedule: Q01DX001 (ip), vehicle: saline); 0 of 6 (dose: 300.0 mg/kg/injection, schedule: Q01DX001 (ip), vehicle: saline).

As for `CN(C)C1=C(N2CC2)C(=O)C(N(C)C)=C(N2CC2)C1=O`, the T/C runs as follows: (dose: 0.18 mg/kg/injection, schedule: Q04DX003 (ip), vehicle: saline) 97, 103, 108, 138 % of control; (dose: 0.37 mg/kg/injection, schedule: Q04DX003 (ip), vehicle: saline) 106, 108, 111, 151 % of control; (dose: 0.75 mg/kg/injection, schedule: Q01DX009 (ip), vehicle: saline) 139 % of control; (dose: 0.75 mg/kg/injection, schedule: Q04DX003 (ip), vehicle: saline) 97, 101, 124, 151 % of control; (dose: 1.5 mg/kg/injection, schedule: Q04DX003 (ip), vehicle: saline) 98, 137, 152, 156 % of control; under setting [9], 138, 173, 220 % of control. The survivor count reads like this: (dose: 1.5 mg/kg/injection, schedule: Q01DX009 (ip), vehicle: saline) 6 of 6; under setting [9], 5 of 6; (dose: 6.0 mg/kg/injection, schedule: Q04DX003 (ip), vehicle: saline) 2 of 6 and 6 of 6.

For the compound `[Cl][Al]([Cl])[Cl]`, the survivor count by setting is: (dose: 25.0 mg/kg/injection, schedule: Q01DX009 (ip), vehicle: saline) 6 of 6; under setting [1], 3 of 6; under setting [2], 1 of 6; (dose: 100.0 mg/kg/injection, schedule: Q04DX003 (ip), vehicle: saline) 5 of 6; (dose: 200.0 mg/kg/injection, schedule: Q01DX001 (ip), vehicle: saline) 6 of 6; under setting [3], 1 of 6. Further, the survivor count runs as follows: (dose: 400.0 mg/kg/injection, schedule: Q01DX001 (ip), vehicle: saline) 3 of 6; (dose: 400.0 mg/kg/injection, schedule: Q04DX003 (ip), vehicle: saline) 1 of 6.

On to `CC(=O)OCC1CC2CC(O)C1C2` (stereo unspecified), for which the survivor count was 1 of 6 (dose: 150.0 mg/kg/injection, schedule: Q01DX001 (ip), vehicle: acetone) and 0 of 6 (dose: 300.0 mg/kg/injection, schedule: Q01DX001 (ip), vehicle: acetone).

Take `Cc1cccc(C)c1N=Nc1cc[n+]([O-])cc1`: the survivor count was 3 of 6 (dose: 12.5 mg/kg/injection, schedule: Q04DX003 (ip), vehicle: saline with Tween-80); 5 of 6 under setting [6]; 2 of 6 under setting [7]; 0 of 6 under setting [8].

For `CN1c2ccc(Cl)cc2C2(C(=O)NN)C(C(=O)NN)N(C3CCCCC3)C(=O)C12N` (stereo unspecified), under setting [5], the survivor count is recorded as 1 of 6.

The values are drawn from PubChem BioAssay AID248 (DTP/NCI, 2004).
